# Measured values: PMC5996148
# Values joined by “and” are separate entries in the source; they are usually repeats but may differ in a detail not shown here. Identical values can stand only once. Some of the results follow.
# Tests used:
# Experiment in all cases: protein microarray (ProtoArray v5.0), streptavidin-Alexa Fluor 647
# Conditions in all cases: 3'-biotin; 20 mM Tris (pH 7.5), 5 mM MgCl2, 100 mM KCl, 0.1% Tween-20, A/T-rich and random oligonucleotide blockers; temperature not stated; high values mean tight binding
# ALB (human) = test system: ALB (human)
# ALDH3A1 (human) = test system: ALDH3A1 (human)
# ALDH7A1 (human) = test system: ALDH7A1 (human)
# ALDOC (human) = test system: ALDOC (human)
# ALG13 (human) = test system: ALG13 (human)
# ALG14 (human) = test system: ALG14 (human)
# ALG2 (human) = test system: ALG2 (human)
# ALKBH3 (human) = test system: ALKBH3 (human)
# ALOX12 (human) = test system: ALOX12 (human)
# ALOX15 (human) = test system: ALOX15 (human)
# ALOX15B (human) = test system: ALOX15B (human)
# ALOX5 (human) = test system: ALOX5 (human)
# ALOX5AP (human) = test system: ALOX5AP (human)
# ALS2 (human) = test system: ALS2 (human)
# ALS2CL (human) = test system: ALS2CL (human)
# AMBP (human) = test system: AMBP (human)
# AMDHD1 (human) = test system: AMDHD1 (human)
# AMELX (human) = test system: AMELX (human)
# AMPD2 (human) = test system: AMPD2 (human)
# ANGPTL2 (human) = test system: ANGPTL2 (human)
sequence,measurement,setting,value
GGGAGGCTGAGGCAGG [G4-1 biotinylated (PQS2)],binding signal,ALB (human),-0.349 z-score and -0.334 z-score
same,binding signal,ALDH3A1 (human),-0.343 z-score
same,binding signal,ALDH7A1 (human),-0.314 z-score
same,binding signal,ALDOC (human),-0.328 z-score
same,binding signal,ALG13 (human),-0.352 z-score
same,binding signal,ALG14 (human),-0.321 z-score
same,binding signal,ALG2 (human),-0.23 z-score
same,binding signal,ALKBH3 (human),-0.329 z-score
same,binding signal,ALOX12 (human),-0.333 z-score
same,binding signal,ALOX15 (human),-0.345 z-score
same,binding signal,ALOX15B (human),-0.357 z-score
same,binding signal,ALOX5 (human),-0.365 z-score
same,binding signal,ALOX5AP (human),-0.331 z-score
same,binding signal,ALS2 (human),-0.33 z-score
same,binding signal,ALS2CL (human),-0.307 z-score
same,binding signal,AMBP (human),-0.313 z-score
same,binding signal,AMDHD1 (human),-0.347 z-score
same,binding signal,AMELX (human),-0.35 z-score
same,binding signal,AMPD2 (human),-0.323 z-score
same,binding signal,ANGPTL2 (human),-0.302 z-score
